The target in assay [1] is GST‐NF‐YC12 (rice (Oryza sativa L.)). Description: pull-down; GST pull-down with two proteins; Glutathione High Capacity Magnetic Agarose Beads, 500 μg of each recombinant protein in 600 μL pull-down buffer (50 mM Tris‐HCl pH 7.5, 5% glycerol, 1 mM EDTA, 1 mM DTT, 1 mM PMSF, 0.01% Nonidet P‐40, 150 mM KCl), 4 °C, 2 h; immunoblot; both purified.
For assay [2], the target named is NF‐YC12 in MCS3 of pDOE‐BiFC (rice (Oryza sativa L.)). Description: split reporter; BiFC (pDOE‐BiFC, YFP) in Nicotiana benthamiana leaf epidermal cells, confocal microscopy 72 h after infiltration; without NF‐YC12‐mcherry as third protein.
In assay [3] the target is NF‐YC11‐pBT (rice (Oryza sativa L.)). Description: two-hybrid; bacterial two-hybrid (BacterioMatch II) in E. coli XL1‐Blue MRF′; NF‐YB1‐pTRG and NF‐YCs‐pBT; growth on M9/+Cm/+Ter/+3‐AT/+Strep/‐HIS against M9/+Cm/+Ter; intensity = ratio (%) of colony numbers.
The target of assay [4] is truncated NF‐YC12 without the 5′ upstream region of the HLD (rice (Oryza sativa L.)). Described as above.

These are yes or no findings as the source states them, for the method shown. Binding calls can cover weak binding; strength is not graded here. For some of these results: Sequences can lack the tags named with a protein. For some of these results: In cells and extracts the contact can be indirect.

B1: HIS‐NF‐YB1 (protein, UniProt Q6Z348 1-186)
chain: MAGNKKRGGRNMDQVKKAAVRSDGVGGSATNAELPMANLVRLIKKVLPGKAKIGGAAKGLTHDCAVEFVGFVGDEASEKAKAEHRRTVAPEDYLGSFGDLGFDRYVDPMDAYIHGYREFERAGGNRRVAPPPPAAATPLTPGGPTFTDAELQFLRSVIPSRSDDEYSGSSPAIGGYGYGYGYGKNM
As for B1, in assay [1], the binding entry was “binds”.

B2: NF‐YB1 in MCS1 of pDOE‐BiFC (protein, UniProt Q6Z348 1-186)
chain: B1 chain
For the molecule B2, the binding entry in assay [2] is recorded as “binds”.

B3: NF‐YB1‐pTRG (protein, UniProt Q6Z348 1-186)
chain: B1 chain
Consider B3, for which the binding result in assay [3] and in assay [4] was “binds” throughout.

The record behind these values is article PMC6576074, “NF‐YB1‐YC12‐bHLH144 complex directly activates Wx to regulate grain quality in rice (Oryza sativa L.)”.
